The record followed here is paper PMC10315276.

Sequences of proteins named here, by UniProt entry; tags and fusion partners are left off. A change or cut given only in a name is not applied to a line headed by its entry.
UniProt A0A286S6L1: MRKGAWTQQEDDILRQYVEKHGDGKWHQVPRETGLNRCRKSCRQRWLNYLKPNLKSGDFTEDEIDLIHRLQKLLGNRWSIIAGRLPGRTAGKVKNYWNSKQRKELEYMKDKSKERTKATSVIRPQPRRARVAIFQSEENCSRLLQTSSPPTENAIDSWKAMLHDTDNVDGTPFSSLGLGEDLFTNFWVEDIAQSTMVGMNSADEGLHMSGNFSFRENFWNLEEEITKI

This assay addresses PyERF3-CLuc (pear (Pyrus)). The assay can be described thus: split reporter; luciferase complementation in N. benthamiana leaves; PyMYB114-Nluc and PyERF3-Cluc coinfiltrated with increasing PyERF4.1/PyERF4.2-pSAK277.

These are yes or no findings as the source states them, for the method shown. In cells and extracts the contact can be indirect. Binding can be weak; no strength is given.

Consider PyMYB114-Nluc (from UniProt A0A286S6L1), for which the binding result is on record as “binds”.
